Laboratory results: PubChem BioAssay AID1259266 (Sanger Institute, 2017)

Test: 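Search kinases and colorectal cancer genes for essential genes and drug synergy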 (primary screen)
Cells: LS123 human colorectal cancer cells
Reagent: siRNA pool against human genes
Conditions: anchor drugs BYL719 (1 µM), cetuximab (5 µg/ml) or trametinib (10 nM), each chosen to barely slow growth alone; DMSO vehicle as the drug-free arm
Read-out: 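Replicate-averaged viability scaled to non-targeting pools, robust z-score for siRNA alone, and a synergy score per anchor drug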
Direction: robust z-score, knock-down alone: higher = more cells surviving after knock-down
Call rule: 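Essential when the robust z-score of the knock-down alone is below -3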
Calls: active = essential (knock-down alone cuts viability); inactive = no change
In all, the deposit lists 794 reagents; this is a random part of them. Of all reagents, 16 (2%) were called active. 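Calls reflect knock-down alone, not drug synergy; viability seems capped at 1 and z-scores at 0.585.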 Further read-outs or replicates are left out here. The record does not give: the amount of reagent, the time to read-out.

PRKCB (protein kinase C beta) — robust z-score, knock-down alone: 0.585; call: inactive
MAP2K1 (mitogen-activated protein kinase kinase 1) — robust z-score, knock-down alone: 0.585; call: inactive
TJP2 (tight junction protein 2) — robust z-score, knock-down alone: 0.585; call: inactive
MAPK3 (mitogen-activated protein kinase 3) — robust z-score, knock-down alone: -2.25; call: inactive
NTRK2 (neurotrophic receptor tyrosine kinase 2) — robust z-score, knock-down alone: 0.585; call: inactive
PTK2 (protein tyrosine kinase 2) — robust z-score, knock-down alone: -0.79; call: inactive
CDK2 (cyclin dependent kinase 2) — robust z-score, knock-down alone: 0.585; call: inactive
FCSK (fucose kinase) — robust z-score, knock-down alone: -0.519; call: inactive
RIPK2 (receptor interacting serine/threonine kinase 2) — robust z-score, knock-down alone: 0.585; call: inactive
NRBP1 (nuclear receptor binding protein 1) — robust z-score, knock-down alone: -0.959; call: inactive
PKN2 (protein kinase N2) — robust z-score, knock-down alone: -2.56; call: inactive
MAPK14 (mitogen-activated protein kinase 14) — robust z-score, knock-down alone: -1.5; call: inactive
COQ8B (coenzyme Q8B) — robust z-score, knock-down alone: 0.585; call: inactive
DAPK2 (death associated protein kinase 2) — robust z-score, knock-down alone: 0.585; call: inactive
EPHA4 (EPH receptor A4) — robust z-score, knock-down alone: -0.2; call: inactive
ACVR1B (activin A receptor type 1B) — robust z-score, knock-down alone: 0.585; call: inactive
DYRK2 (dual specificity tyrosine phosphorylation regulated kinase 2) — robust z-score, knock-down alone: 0.585; call: inactive

As entered above:
PKN2 (protein kinase N2), robust z-score, knock-down alone = -2.56
Under “robust z-score, knock-down alone”, DAPK2 (death associated protein kinase 2) is entered as 0.585

Additional records follow:
PFKP (phosphofructokinase, platelet) — robust z-score, knock-down alone: 0.585; call: inactive
BUB1 (BUB1 mitotic checkpoint serine/threonine kinase) — robust z-score, knock-down alone: -2.59; call: inactive
TP53RK (TP53 regulating kinase) — robust z-score, knock-down alone: -0.612; call: inactive
MST1R (macrophage stimulating 1 receptor) — robust z-score, knock-down alone: -0.735; call: inactive
CDK17 (cyclin dependent kinase 17) — robust z-score, knock-down alone: 0.585; call: inactive
IP6K2 (inositol hexakisphosphate kinase 2) — robust z-score, knock-down alone: 0.253; call: inactive
PIM3 (Pim-3 proto-oncogene, serine/threonine kinase) — robust z-score, knock-down alone: 0.585; call: inactive
BRD2 (bromodomain containing 2) — robust z-score, knock-down alone: 0.585; call: inactive
NUAK1 (NUAK family kinase 1) — robust z-score, knock-down alone: -1.76; call: inactive
PRKACG (protein kinase cAMP-activated catalytic subunit gamma) — robust z-score, knock-down alone: 0.585; call: inactive
TGFBR1 (transforming growth factor beta receptor 1) — robust z-score, knock-down alone: 0.089; call: inactive
